From paper PMC11108907 come the findings set out here.

The chains behind the UniProt entries cited, without tags or fusion partners. Where a name states a change or a piece, a line headed by the entry shows the natural chain unless it says otherwise.
UniProt P63331: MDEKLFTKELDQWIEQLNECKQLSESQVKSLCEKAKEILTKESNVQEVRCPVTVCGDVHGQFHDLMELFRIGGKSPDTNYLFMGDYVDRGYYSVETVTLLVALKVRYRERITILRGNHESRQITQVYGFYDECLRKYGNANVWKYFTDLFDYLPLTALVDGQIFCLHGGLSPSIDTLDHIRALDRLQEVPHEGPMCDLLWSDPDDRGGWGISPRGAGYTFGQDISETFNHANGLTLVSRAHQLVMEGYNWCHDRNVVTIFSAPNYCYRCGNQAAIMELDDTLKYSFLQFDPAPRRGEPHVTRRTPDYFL
UniProt P63159: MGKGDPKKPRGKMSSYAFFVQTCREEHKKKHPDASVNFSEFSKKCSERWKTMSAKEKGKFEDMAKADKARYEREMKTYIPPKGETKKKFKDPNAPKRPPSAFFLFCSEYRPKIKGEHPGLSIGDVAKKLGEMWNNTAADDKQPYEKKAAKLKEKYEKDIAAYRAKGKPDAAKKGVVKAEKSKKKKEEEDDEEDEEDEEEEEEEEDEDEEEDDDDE

These are yes or no findings as the source states them, for the method shown. In cells and extracts the contact can be indirect. Binding calls can cover weak binding; strength is not graded here.

Experiment [1] has as its target protein phosphatase 2 A catalytic subunit (PP2Ac) (rat (endogenous in SD rat brain tissue)) (UniProt P63331). In words: co-IP; Whole tissue lysates of rats (Control, SS, SS + LGA and SS + HGA groups) immunoprecipitated with anti-HMGB1, anti-PP2Ac or anti-PKCα antibody overnight at 4 °C, captured on protein A/G agarose beads, then immunoblotted. For orientation: In western blotting, separated proteins are transferred to a membrane and probed.

Experiment [2] concerns the target high-mobility group box 1 (HMGB1) (rat (endogenous in SD rat brain tissue)) (UniProt P63159). Described as above.

Regarding “high-mobility group box 1 (HMGB1) (from UniProt P63159 1-215)”, in experiment [1], the binding entry was “binds”. Turning to “protein phosphatase 2 A catalytic subunit (PP2Ac) (from UniProt P63331) (enzyme)”, the binding entry in experiment [2] was “binds”.
